Data from publication doi:10.1101/206383.
These are yes or no findings as the source states them, for the method shown. Binding seen in cells or lysates may run through a third protein. Some results given as binding are weak or reduced against the parent protein; the word gives no strength.

The chains behind the UniProt entries cited, without tags or fusion partners. Where a name states a change or a piece, a line headed by the entry shows the natural chain unless it says otherwise.
UniProt Q80U70, whole entry: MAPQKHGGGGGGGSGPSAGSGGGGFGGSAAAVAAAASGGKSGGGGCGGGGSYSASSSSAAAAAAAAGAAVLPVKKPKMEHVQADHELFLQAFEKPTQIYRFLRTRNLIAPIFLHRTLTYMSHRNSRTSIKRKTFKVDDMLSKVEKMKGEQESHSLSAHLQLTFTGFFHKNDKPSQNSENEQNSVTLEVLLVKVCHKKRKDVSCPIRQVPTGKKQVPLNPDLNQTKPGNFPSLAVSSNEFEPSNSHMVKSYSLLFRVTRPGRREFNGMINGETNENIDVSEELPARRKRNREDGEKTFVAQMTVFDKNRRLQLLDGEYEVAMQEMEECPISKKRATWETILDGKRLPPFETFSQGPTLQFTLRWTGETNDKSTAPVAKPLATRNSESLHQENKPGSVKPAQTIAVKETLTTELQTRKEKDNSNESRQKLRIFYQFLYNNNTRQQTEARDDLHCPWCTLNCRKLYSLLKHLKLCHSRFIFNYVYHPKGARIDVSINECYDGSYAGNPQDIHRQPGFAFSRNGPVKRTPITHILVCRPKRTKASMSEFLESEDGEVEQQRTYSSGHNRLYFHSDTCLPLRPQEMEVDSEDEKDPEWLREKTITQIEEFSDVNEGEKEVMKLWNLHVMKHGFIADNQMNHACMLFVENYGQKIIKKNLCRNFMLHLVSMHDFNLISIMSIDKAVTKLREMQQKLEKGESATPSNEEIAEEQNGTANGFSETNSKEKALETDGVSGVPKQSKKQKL

Key:
Experiment in all cases: co-IP
[1] = target: EZH2^D142V expressed from a lentiviral vector in EZH2-KO mESC (human) (UniProt Q15910)
[2] = target: EZH2^F145L expressed from a lentiviral vector in EZH2-KO mESC (human) (UniProt Q15910)
[3] = target: EZH2^P132S expressed from a lentiviral vector in EZH2-KO mESC (human) (UniProt Q15910)
[4] = target: EZH2^WT expressed from a lentiviral vector in EZH2-KO mESC (human) (UniProt Q15910)

Measured: binding

SUZ12, endogenous in mESC (from UniProt Q80U70 1-741)
binds: all assays above

B1: Jarid2, endogenous in mESC (protein, UniProt Q62315 1-1234)
chain: MSKERPKRNIIQKKYDDSDGIPWSEERVVRKVLYLSLKEFKNAQKRQHGEGLAGSLKAVNGLLGNAQAKALGPASEQSENEKDDASQVSSTSNDVSSSDFEEGPSRKRPRLQAQRKFAQSQPNSPSTTPVKIVEPLLPPPATQISDLSKRKPKTEDFLTFLCLRGSPALPNSMVYFGSSQDEEDVEEEDDETEDVKATTNNASSSCQSTPRKGKTHKHVHNGHVFNGSSRSAREKEPAHKHRSKEATPGKEKHSEPRADSRREQASGAQPTAASAAASSAKGLAANHQPPPSHRSAQDLRKQVSKVNGVTRMSSLGAGTNSAKKIREVRPSPSKTVKYTATVTKGTVTYTKAKRELVKETKPNHHKPSSAVNHTISGKTESSNAKTRKQVLSLGGASKSTGPAASGLKASSRLNPKSCTKEVGGRQLREGLRNSKRRLEEAQQVDKPQSPPKKMKGVAGNAEAPGKKASAASGEKSLLNGHVKKEVPERSLERNRPKRAAAGKNMLGKQAHGKTEGTPCENRSTSQPESSHKPHDPQGKPEKGSGKSGWAAMDEIPVLRPSAKEFHDPLIYIESVRAQVEKYGMCRVIPPPDWRPECKLNDEMRFVTQIQHIHKLGRRWGPNVQRLACIKKHLRSQGITMDELPLIGGCELDLACFFRLINEMGGMQQVTDLKKWNKLADMLRIPKTAQDRLAKLQEAYCQYLLSYDSLSPEEHRRLEKEVLMEKEILEKRKGPLEGHTESDHHKFHSLPRFEPKNGLVHGVTPRNGFRSKLKEVGRAPLKTGRRRLFAQEKEVVKEEEEDKGVLNDFHKCIYKGRSVSLTTFYRTARNIMNMCFSKEPAPAEIEQEYWRLVEEKDCHVAVHCGKVDTNTHGSGFPVGKSEPFSRHGWNLTVLPNNTGSILRHLGAVPGVTIPWLNIGMVFSTSCWSRDQNHLPYIDYLHTGADCIWYCIPAEEENKLEDVVHTLLQGNGTPGLQMLESNVMISPEVLCKKGIKVHRTVQQSGQFVVCFPGSFVSKVCCGYNVSETVHFATTQWTSMGFETAKEMKRRHIAKPFSMEKLLYQIAQAEAKKENGPTLSTISALLDELRDTELRQRRLLFEAGLHSSARYGSHDGNSTVADGKKKPRKWLQLETSERRCQICQHLCYLSMVVQENENVVFCLECALRHVEKQKSCRGLKLMYRYDEEQIISLVNQICGKVSGKHGGIENCLNKPTPKRGPRKRATVDVPPSRLPSS
binds: all assays above

B2: Aebp2, endogenous in mESC (protein, UniProt Q9Z248 1-504)
chain: MAAALADMADLEELSRLSPLSPGSPGPAARGRAEPPEEEEEEDDEEAEAEAVAALLLNGGAGGGAGGGEAETMSEPSPESASQAGGDEDEDEEDDEDEGSSSGGAEEESSAESLVGSSSGGCSGDETRSLSPGAASSSSGDGDGKEGLEEPKGPRGGPGGPGSSGGGSSSSSVVSSGGDEGYGTGGGGSSATSGGRRGSLEMSSDGEPLSRMDSEDSISSTLMDIDSTISSGRSTPAMMNGQGSTTASSKHIAYNCCWDQCQACFNSSPDLADHIRSIHVDGQRGGVFVCLWKGCKVYNTPSTSQSWLQRHMLTHSGDKPFKCVVGGCNASFASQGGLARHVPTHFSQQNSSKVSSQPKAKEESPSKAGMNKRRKLKNKRRRSLPRPHDFFDAQTLDAIRHRAICFNLSAHIESLGKGHSVVFHSTVIAKRKEESGKIKLLLHWMPEDILPDVWVNESERHQLKTKVVHLSKLPKDTALLLDPNIYRTMPQKRLKRFDILNFPR
binds: all assays above
